Some results were stated once for a whole list of compounds, not compound by compound.
Target: SNDH II (aldehyde dehydrogenase) (Ketogulonicigenium vulgare, UniProt Q402A8)
Assay: Substrate specificity of the purified enzyme, photometrical DCIP assay
Assay type: biochemical, Gluconobacter oxydans DSM No. 4025 (FERM BP-3812)
Settings: at both pH 7.5 and 9.0; D-glucosone 2 mM, others 100 mM
Procedure: The reaction mixture consisted of 0.1 mM DCIP, 1.0 mM PMS, 50 mM potassium phosphate buffer (pH 7.0), 1.0 μM PQQ, 2 to 100 mM substrate (L-sorbosone, D-glucosone, D-glucose, etc.) and enzyme solution in a final volume of 100 μl water, said reaction mixture was prepared just before the assay. The reaction was started at 25° C. with L-sorbosone, and the enzyme activity was measured as the initial reduction rate of DCIP at 600 nm. One unit of the enzyme activity was defined as the amount of the enzyme catalyzing the reduction of 1 μmol DCIP per minute. The extinction coefficient of DCIP at pH 7.0 was taken as 14.2 mM^−1. A reference cuvette contained all the above constituents except for L-sorbosone.
a) The substrate specificity of the enzyme was determined using the same enzyme assay method as described under 1b) above with the exception of using 100 mM potassium phosphate (pH 7.5) or 100 mM Tris-HCl (pH 9.0) as buffer. The relative activity of SNDH II for D-glucosone (2 mM), D-glucose (100 mM), and D-xylose (100 mM) was higher than that for L-sorbosone (2 mM) at both pH 7.5 and 9.0. However, the relative activity for L-sorbose (100 mM), D-sorbitol (100 mM), and L-gulono-γ-lactone (100 mM) was lower than 1% of that for L-sorbosone at both pH 7.5 and 9.0.

By UniProt entry, the sequences of proteins in these tests, tags left out.
UniProt Q402A8, entry or part of it: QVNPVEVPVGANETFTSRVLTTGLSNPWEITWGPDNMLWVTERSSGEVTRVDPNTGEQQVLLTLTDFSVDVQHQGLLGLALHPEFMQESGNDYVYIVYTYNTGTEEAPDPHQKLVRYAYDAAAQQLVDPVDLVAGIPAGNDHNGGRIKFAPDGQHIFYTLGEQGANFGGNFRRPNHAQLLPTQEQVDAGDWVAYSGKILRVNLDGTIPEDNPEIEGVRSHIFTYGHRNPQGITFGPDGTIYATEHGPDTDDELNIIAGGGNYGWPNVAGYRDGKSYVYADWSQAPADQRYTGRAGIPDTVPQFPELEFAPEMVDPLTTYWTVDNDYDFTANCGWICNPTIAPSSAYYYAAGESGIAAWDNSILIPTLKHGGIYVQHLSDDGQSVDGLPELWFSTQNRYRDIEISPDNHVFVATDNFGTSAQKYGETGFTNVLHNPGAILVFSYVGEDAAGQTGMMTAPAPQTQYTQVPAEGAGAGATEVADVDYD

SMILES	Relative activity compared with that for L-sorbosone (2 mM)
OC[C@@H](O)[C@@H](O)[C@H](O)[C@@H](O)CO [D-Sorbitol]	under 1%
O=C(CO)[C@@H](O)[C@H](O)[C@@H](O)CO [L-Sorbose]	under 1%

From US20050153412A1, “Aldehyde dehydrogenase II” (priority 2002, published 2005)
